Among the data in patent publication US20250144213A1 (UTC THERAPEUTICS SHANGHAI, published 2025) are binding values, retold here.

Protein sequences, listed by entry. Tags and fused reporters are not part of them. Lines headed by an entry give the natural chain unless they say otherwise; changes in a name come on top. Chains listed by the source or under a name are the forms on record and can include a tag or linker.
mesothelin-Fc recombinant protein (Q13421, form named): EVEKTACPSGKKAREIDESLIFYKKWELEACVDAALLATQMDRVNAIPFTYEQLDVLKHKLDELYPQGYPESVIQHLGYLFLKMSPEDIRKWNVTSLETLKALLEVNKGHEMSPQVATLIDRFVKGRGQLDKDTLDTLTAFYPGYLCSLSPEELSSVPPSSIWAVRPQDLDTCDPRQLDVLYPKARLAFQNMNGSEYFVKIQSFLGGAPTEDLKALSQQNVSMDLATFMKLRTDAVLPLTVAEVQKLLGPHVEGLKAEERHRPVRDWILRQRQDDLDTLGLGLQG

These are yes or no findings as the source states them, for the method shown. Some results given as binding are weak or reduced against the parent protein; the word gives no strength.

This experiment addresses mesothelin-Fc recombinant protein (human) (UniProt Q13421). Kind of experiment: FACS staining of CAR-T cells with mesothelin-Fc recombinant protein (FIG. 19).

B1: anti-mesothelin scFv-M28 (scFv)
scFv: QSALTQPPSASGSPGQSVTISCSGTSSDVGGYNFVSWYQHHPGKAPKLMIYEVSKRPSGVPDRFSGSKSGNTASLTVSGLQAEDEADYYCSSYAGRNNPYLFGTGTKLTVLGGGGSGGGGSGGGGSQLQLQESGAEVKKPGSSVKVSCKASGGTFSSYAISWVRQAPGQGLEWMGGIIPIFGTANYAQKFQGRVTITADESTSTAYMELSSLRSEDTAVYYCARDLGGYSYGHGLDYWGQGTLVTVSS
Turning to B1, the binding result is “binds”.

B2: anti-mesothelin scFv-M27 (scFv)
scFv: EIVLTQSPGTLSLSPGERATLSCRASQPIVASHLAWYQHKPGQAPRLLIYGASTRAAGIPDRFSGSGSGTDFTLTISRLEPEDFAVYFCQQYGISPFTFGPGTKVDIKGGGGSGGGGSGGGGSQVQLVQSGAEVKKPGESLKISCQGSGYSFTDYWIGWVRQAPGQGLEWMGWITPNNGNTNYAPKFQGRVTLTTDTSTSTAYMELRSLTSDDTAVYFCARRGRNSSGYLYYYSMDVWGQGTTVTVSS
As for B2, the binding result is on record as “binds”.

B3: anti-mesothelin scFv-M8 (scFv)
scFv: DIQLTQSPSSLSASVGDRVTITCRASQSISSSLNWYQQKPGKAPKLLIYAASSLQSGVPSRFSGSGSGTDFTLTISSLQPEDFATYSCQQSYSTPLTFGGGTKVEIKGGGGSGGGGSGGGGSQVHLVESGGGVVQPGRSLRVSCAASGFTFSGYAMYWVRQAPGKGLEYVSAITTNGGSTNYADSVKGRFTISRDNSKNTLYLQMSSLRAGDTAVYYCARGAPGYRGYYMDVWGKGTTVTVSS
In the case of B3, the binding result is listed as “binds”.

B4: anti-mesothelin scFv-M6 (scFv)
scFv: EIVMTQSPATLSLSPGERATLSCRASQSIGNSLAWYQQKPGQAPRLLIYDVSNRATGIPARFSGSGSGTDFTLTISSLEPEDFAVYYCQHRYSWPLTFGGGTKVEIKGGGGSGGGGSGGGGSQVQLVQSGGGLVKPGGSLRLSCAASGFTFSDYYMSWIRQAPGKGLEWVSYISSSGSTIYYADSVKGRFTISRDNAKNSLYLQMNSLRAEDTAVYYCARDGYRTHNWFDPWGQGTLVTVSS
As for B4, the binding entry is recorded as “binds”.

B5: anti-mesothelin scFv-M24 (scFv)
scFv: QPVLTQPPSASGTPGQRVTISCSGSSSNIGSNYVYWYQQFPGTAPKLLIYMNNQRPSGVPDRFSGSKSGTSASLAISGLRSEDEADYYCAARDDSLSGYVTFGGGTKLTVLGGGGSGGGGSGGGGSEVHLVESGGGLVQPGGSLRLSCAASGFTFSSYAMSWVRQAPGKGLEWVSAISGSGGSTYYADSVKGRFTISRDNSKNTLYLQMNSLKTEDTAVYYCTRGVATFDYWGQGTLVTVSS
As to B5, the binding entry is on record as “binds”.

B6: anti-mesothelin scFv-M32 (scFv)
scFv: DIRMTQSPSSLSASVGDRVTVTCQASEDINNSLNWYQQKPGKAPQLLIYDASDLETGVPSRFSGRGSGRDFTLTISSLQPEDFATYYCQQLNSYPLTFGGGTKLEIKGGGGSGGGGSGGGGSQVQLVQSGAEVKKPGASVKVSCKASGFTFIGYYLHWVRQAPGQGLEWMGIINPSGGRTSMAQKFQGRVSMTTDTSTGTVYLDLGRLGSDDTAVYYCARADNWNAGSMDVWGNGTTVTVSS
For B6, the binding entry was “binds”.

B7: anti-mesothelin scFv-M31 (scFv)
scFv: QSALTQPPSASGSPGQSVTISCTGTSSDIGGYNSVSWYQQHPGKAPKLIIYGVSRRPSGVPDRFSGSKSANTASLTVSGLQAVDEADYYCSSYGGSNNLLFGGGTKLTVLGGGGSGGGGSGGGGSEVHLVESGGGLAQPGGSLRLSCAASGFSFSSSWMAWVRQAPGKGLEWVANIKQDGSSQYYVDSVKGRFTISRDNAKNSLSLQMNSLRAEDTAVYYCARDIWYSIDYWGQGTLVTVSS
In the case of B7, the binding entry is listed as “binds”.

B8: anti-mesothelin scFv-M20 (scFv)
scFv: AIQMTQSPSSLSASVGNRVTITCRASQGISSAVAWYQQKPGKPPKLLISYASSLESGVPSRFSGSGSGTDFSLTISSLQPEDFATYFCQQFNSYPLTFGGGTKVEIKGGGGSGGGGSGGGGSQVQLVQSGAEVRKPGESLKISCKGSGYSFRDSWIAWVRQMPGQGLEWMGIIFPGDSNPIYSPSFQGQVTISADTSISTTFLQWRSLKASDSAIYYCARHAAWGAGWFDPWGQGTLVTVSS
As for B8, the binding entry was “binds”.

B9: anti-mesothelin scFv-M13 (scFv)
scFv: AIRMTQSPSSLSASVGDRVTITCRASQGISNSLAWYQQKPGKAPKLLLYAASRLESGVPSRFSGSGSGTDYTLTISSLQPEDFATYYCQQYYSTPFTFGPGTKLEIKGGGGSGGGGSGGGGSQVQLVQSGAEVKKPGSSVKVSCKTSADTFSANTINWVRQAPGHGLEWMGRIIPSLNIRDYAQEFQGRVTFTADESTNTVYMQLTSLRSEDTAVYYCARDPGSTWSPNQFFPHWGQGTLVTVSS
With B9, the binding result is “binds”.

B10: anti-mesothelin scFv-M7 (scFv)
scFv: DIRLTQSPSSLSASLGDRVTITCRASQAISSALAWYQQKPGKAPRLLIYDASTLESGVPSRFSGSGSGTDFTLTISSLQPEDFATYYCQQADSFPLTFGGGTKLEIKGGGGSGGGGSGGGGSQVQLVQSGAEVKKSGESLKISCKGSGYGFGAYWIAWVRQMPGKGLEWMGIIYPGDSRVIYSPYFQGQVTISADKSISTAYLQWSSLKASDTAMYYCARFGGPKFATNWFDIWGQGTTVTVSS
On to B10, for which the binding result is “binds”.

B11: anti-mesothelin scFv-M12 (scFv)
scFv: AIRLTQSPSLLSASVGDRVTVTCRASQGGGNYLAWYQQKPGKAPKLLIYGASKLQSGVPSRFSGSGSGTEFTLTISSLQPEDFATYYCQQLNSYPVTFGQGTKVDIKGGGGSGGGGSGGGGSEVQLVESGAEVKKPGASVKVSCKASGYTFTTYYIHWVRQAPGQGLEWMGIINPSSGSTTYTQKFQGRVTMTRDTSTSTVYIELSGLRSEDTAVYYCARGETLRGYFDYWGQGTLVTVSS
Turning to B11, the binding entry was “binds”.

B12: anti-mesothelin scFv-M37 (scFv)
scFv: DIVMTQTPSSLSASVGDRVTITCRASQGISNYLAWFQQKPGKAPKPLIYAASSLQSGVPSKFSGSGSGTDFTLTISNLQPEDFATYICQQYSSYPITFGQGTRLEIKGGGGSGGGGSGGGGSQLQLQESGPGLVKPSETLSLTCAVSGGSISPYYWTWIRQSPGKAMEWMGYIHYSGRTNYNPSLESRATFSVDTSKNQISLKLNSVTAADTAVYYCTKVGDPGLFDYWGPGTLVTVSS
As for B12, the binding result is recorded as “binds”.
